# Assay results published in US20180022780A1, “STABILIZATION ADRENOMEDULLIN DERIVATIVES AND USE THEREOF” (priority 2014, published 2018).
# Chains of the proteins cited; added tags and fusions are not shown. Residues count along the entry.
# UniProt O60895, 43-175: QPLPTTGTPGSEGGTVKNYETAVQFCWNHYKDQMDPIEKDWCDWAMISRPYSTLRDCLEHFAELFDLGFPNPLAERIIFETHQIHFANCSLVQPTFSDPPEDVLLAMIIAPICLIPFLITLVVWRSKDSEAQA
# UniProt Q16602, 23-461: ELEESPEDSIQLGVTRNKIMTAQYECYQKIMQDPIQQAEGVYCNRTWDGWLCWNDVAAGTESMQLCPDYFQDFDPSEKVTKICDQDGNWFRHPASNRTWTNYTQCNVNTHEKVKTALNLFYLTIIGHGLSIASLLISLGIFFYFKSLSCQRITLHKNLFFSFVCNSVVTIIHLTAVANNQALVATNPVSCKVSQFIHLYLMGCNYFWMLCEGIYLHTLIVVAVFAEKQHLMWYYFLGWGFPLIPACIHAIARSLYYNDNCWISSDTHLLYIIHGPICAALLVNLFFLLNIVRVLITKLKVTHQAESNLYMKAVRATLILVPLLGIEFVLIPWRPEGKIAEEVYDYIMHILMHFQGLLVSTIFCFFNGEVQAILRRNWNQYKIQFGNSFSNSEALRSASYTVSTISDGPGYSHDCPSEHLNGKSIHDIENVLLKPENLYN
# At least one structure is not confirmed: it was looked up by name or label, or the drawing left a doubt. Numbered stars: 1 amine (or outer) side, 2 acyl side, 3 side chain; on linkers, the order of the positions; unused ones are H or OH. Bridge positions count the residues as written; N and C are the ends. Square brackets hold non-standard residues; d marks the D form. Peptide text beside a SMILES is read from it. * marks the point of attachment. Abu(4-yl) = O=C([C@H](CC[*:3])N[*:1])[*:2]; Palmitoyl = CCCCCCCCCCCCCCCC(=O)*; Dap = NC[C@H](N)C(=O)O
# Key:
# [1] = system: HUVEC monolayer; assay: Transcellular electrical resistance assay in endothelial cells (thrombin-stimulated HUVEC monolayer, ECIS); format: cell-based, human; settings: thrombin 0.5 U/ml, dose dependently and significantly, FIG. 1
# [2] = system: TNF-α stimulated HUVECs / human polymorphonuclear granulocytes; assay: Granulocyte transmigration assay (PMNs through TNF-α stimulated HUVECs); format: cell-based; settings: significantly, FIG. 4
# [3] = system: HUVEC monolayer; assay: In vitro-permeability assay in endothelial cells (40 kDa FITC-Dextran, thrombin); format: cell-based, human; settings: thrombin 0.5 U/ml, dose dependently and significantly, FIG. 2
# [4] = system: mean arterial blood pressure; assay: Measurement of blood pressure and heart rate in telemetered, normotensive Wistar rats; format: in vivo; settings: female Wistar rats, subcutaneous, 100 μg/kg
# [5] = molecular target: T1, human adrenomedullin-receptor (Homo sapiens, UniProt O60895+Q16602); assay: Tests on a recombinant adrenomedullin-receptor reporter cell (CHO, aequorin luminescence); format: cell-based; settings: Table 1, CHO cell line carrying the human adrenomedullin-receptor
# T1 construct: expressed in transfected cells; host or cells: CHO (Chinese hamster ovary) recombinant reporter cell line with aequorin
# Method: Activation of the receptor by ligands was measured by aequorin luminescence. Construction of the cell line and measurement procedure has been described in detail [Wunder F., Rebmann A., Geerts A, and Kalthof B., Mol Pharmacol, 73, 1235-1243 (2008)]. In brief: Cells were seeded on opaque 384-well microtiter plates at a density of 4000 cells/well and were grown for 24 h. After removal of culture medium, cells were loaded for 3 h with 0.6 μg/ml coelenterazine in Ca^2+-free Tyrode solution (130 mM sodium chloride, 5 mM potassium chloride, 20 mM HEPES (4-(2-hydroxyethyl)-1-piperazineethanesulfonic acid), 1 mM magnesium chloride, and 4.8 mM sodium hydrogen carbonate, pH 7.4) supplemented with 0.2 mM 3-Isobutyl-1-methylxanthine (IBMX) in a cell culture incubator. Examples were added for 6 min in calcium^2+-free Tyrode solution containing 0.1% bovine serum albumin. Immediately before adding calcium^2+ to a final concentration of 3 mM measurement of the aequorin luminescence was started by use of a suitable luminometer. Luminescence was measured for 60 s. In a typical experiment compounds were tested in a concentration range of 1×10^−13 to 3×10^−6 M.
# [6] = molecular target: T2, CLR fused to EYFP and RAMP2 fused to ECFP (Homo sapiens, UniProt O60895+Q16602); assay: cAMP assay (CRE luciferase reporter, HEK-293 cells transiently co-transfected with CLR and RAMP2); format: cell-based; settings: Table 2, cAMP assay; HEK-293, CLR/RAMP2, CRE luciferase, 3 h stimulation, normalized to [G^14]ADM(14-52)
# T2 construct: EYFP; ECFP; expressed in transfected cells; host or cells: HEK-293 cells, transient co-transfection
# Method: HEK-293 cells (human embryonic kidney cells) were cultured in Ham's F-12/DMEM (1/1; v/v) containing 15% FCS under humidified atmosphere at 37° C. and 5% CO2 in 75 cm^2 cell culture flasks.
# Cells were cultured in 75 cm^2 flasks to 70-80% confluency. 45 μl Metafectene® Pro was diluted in 900 μl Ham's F-12/DMEM (1/1; v/v) and incubated for 20 min at room temperature. 9000 ng plasmid containing DNA of CLR fused to EYFP and 3000 ng plasmid containing DNA of RAMP2 fused to ECFP were dissolved in 900 μl Ham's F-12/DMEM (1/1; v/v). The plasmid solution was mixed with the Metafectene® Pro solution and incubated for 25 min at room temperature. […]
# After 3 h of stimulation, the solutions were removed and the cells were washed with 50 μl of Ham's F-12/DMEM (1/1; v/v) per well. After 10 min incubation in 30 μl of Ham's F-12/DMEM (1/1; v/v) at room temperature, 30 μl of luciferase-solution (ONE-Glo™ Luciferase Assay System) was added and the luminescence was directly measured using an Infinite M200 (Tecan).
# Data analysis of the luminescence measurement was carried out with GraphPad Prism 5. Therefore the measured luminescence values of each plate were first corrected on the base of the respective average of forskolin stimulation. […] After correction and normalization data was analysed using non-linear regression giving dose-response curves for each tested ligand.
smiles,measurement,setting,value
"CC[C@H](C)[C@H](NC(=O)[C@H](CCC(N)=O)NC(=O)[C@H](Cc1c[nH]cn1)NC(=O)[C@H](C)NC(=O)[C@H](CC(C)C)NC(=O)[C@H](CCCCN)NC(=O)[C@H](CCC(N)=O)NC(=O)[C@@H](NC(=O)[C@@H](NC(=O)[C@@H]1CSCC[C@H](NC(=O)CNC(=O)CN)C(=O)N[C@@H](CCCNC(=N)N)C(=O)N[C@@H](Cc2ccccc2)C(=O)NCC(=O)N[C@@H]([C@@H](C)O)C(=O)N1)[C@@H](C)O)C(C)C)C(=O)N[C@@H](Cc1ccc(O)cc1)C(=O)N[C@@H](CCC(N)=O)C(=O)N[C@@H](Cc1ccccc1)C(=O)N[C@H](C(=O)N[C@@H](CC(=O)O)C(=O)N[C@@H](CCCCN)C(=O)N[C@@H](CC(=O)O)C(=O)N[C@@H](CCCCN)C(=O)N[C@@H](CC(=O)O)C(=O)N[C@@H](CC(N)=O)C(=O)N[C@H](C(=O)N[C@@H](C)C(=O)N1CCC[C@H]1C(=O)N[C@@H](CCCNC(=N)N)C(=O)N[C@@H](CO)C(=O)N[C@@H](CCCCN)C(=O)N[C@H](C(=O)N[C@@H](CO)C(=O)N1CCC[C@H]1C(=O)N[C@@H](CCC(N)=O)C(=O)NCC(=O)N[C@@H](Cc1ccc(O)cc1)C(N)=O)[C@@H](C)CC)C(C)C)[C@@H](C)O [Example 16, ((3R,6S,12S,15S,18S)-18-(2-(2-aminoacetamido)acetamido)-12-benzyl-15-(3-guanidinopropyl)-6-((R)-1-hydroxyethyl)-5,8,11,14,17-pentaoxo-1-thia-4,7,10,13,16-pentaazacycloicosane-3-carbonyl)-L-threonyl-ADM(22-52)] (H-GG[Abu(4-yl)]RFGTCTVQKLAHQIYQFTDKDKDNVAPRSKISPQGY-NH2; thioether 3-8)",concentration at which break down of electrical resistance of a HUVEC monolayer after thrombin stimulation is reduced,[1],≥ 1 nmol/L
"CCCCCCCCCCCCCCCC(=O)NCCCC[C@H](N)C(=O)NCC(=O)N[C@H]1CNC(=O)CC[C@@H](C(=O)N[C@H](C(=O)N[C@H](C(=O)N[C@@H](CCC(N)=O)C(=O)N[C@@H](CCCCN)C(=O)N[C@@H](CC(C)C)C(=O)N[C@@H](C)C(=O)N[C@@H](Cc2c[nH]cn2)C(=O)N[C@@H](CCC(N)=O)C(=O)N[C@H](C(=O)N[C@@H](Cc2ccc(O)cc2)C(=O)N[C@@H](CCC(N)=O)C(=O)N[C@@H](Cc2ccccc2)C(=O)N[C@H](C(=O)N[C@@H](CC(=O)O)C(=O)N[C@@H](CCCCN)C(=O)N[C@@H](CC(=O)O)C(=O)N[C@@H](CCCCN)C(=O)N[C@@H](CC(=O)O)C(=O)N[C@@H](CC(N)=O)C(=O)N[C@H](C(=O)N[C@@H](C)C(=O)N2CCC[C@H]2C(=O)N[C@@H](CCCNC(=N)N)C(=O)N[C@@H](CO)C(=O)N[C@@H](CCCCN)C(=O)N[C@H](C(=O)N[C@@H](CO)C(=O)N2CCC[C@H]2C(=O)N[C@@H](CCC(N)=O)C(=O)NCC(=O)N[C@@H](Cc2ccc(O)cc2)C(N)=O)[C@@H](C)CC)C(C)C)[C@@H](C)O)[C@@H](C)CC)C(C)C)[C@@H](C)O)NC(=O)[C@H]([C@@H](C)O)NC(=O)CNC(=O)[C@H](Cc2ccccc2)NC(=O)[C@H](CCCNC(=N)N)NC1=O [Example 18, ((3S,9S,12S,15S,21S)-15-(2-((S)-2-amino-6-palmitamidohexanamido)acetamido)-9-benzyl-12-(3-guanidinopropyl)-3-((R)-1-hydroxyethyl)-2,5,8,11,14,18-hexaoxo-1,4,7,10,13,17-hexaazacyclohenicosane-21-carbonyl)-L-threonyl-ADM(22-52)] (H-K(Palmitoyl)G[Dap]RFGTETVQKLAHQIYQFTDKDKDNVAPRSKISPQGY-NH2; lactam 3-8)",concentration at which transmigration of PMNs through TNF-α stimulated HUVECs is reduced,[2],≥ 1 nmol/L
same,concentration at which permeability of a HUVEC monolayer for FITC-Dextran after thrombin stimulation is reduced,[3],≥ 0.3 nmol/L
same,time after administration until which MABP was reduced by about 20 to 25%,[4],3.5 h
"CCCCCCCCCCCCCCCC(=O)NCC(=O)NCC(=O)N[C@H]1CSCC[C@@H](C(=O)N[C@H](C(=O)N[C@H](C(=O)N[C@@H](CCC(N)=O)C(=O)N[C@@H](CCCCN)C(=O)N[C@@H](CC(C)C)C(=O)N[C@@H](C)C(=O)N[C@@H](Cc2c[nH]cn2)C(=O)N[C@@H](CCC(N)=O)C(=O)N[C@H](C(=O)N[C@@H](Cc2ccc(O)cc2)C(=O)N[C@@H](CCC(N)=O)C(=O)N[C@@H](Cc2ccccc2)C(=O)N[C@H](C(=O)N[C@@H](CC(=O)O)C(=O)N[C@@H](CCCCN)C(=O)N[C@@H](CC(=O)O)C(=O)N[C@@H](CCCCN)C(=O)N[C@@H](CC(=O)O)C(=O)N[C@@H](CC(N)=O)C(=O)N[C@H](C(=O)N[C@@H](C)C(=O)N2CCC[C@H]2C(=O)N[C@@H](CCCNC(=N)N)C(=O)N[C@@H](CO)C(=O)N[C@@H](CCCCN)C(=O)N[C@H](C(=O)N[C@@H](CO)C(=O)N2CCC[C@H]2C(=O)N[C@@H](CCC(N)=O)C(=O)NCC(=O)N[C@@H](Cc2ccc(O)cc2)C(N)=O)[C@@H](C)CC)C(C)C)[C@@H](C)O)[C@@H](C)CC)C(C)C)[C@@H](C)O)NC(=O)[C@H]([C@@H](C)O)NC(=O)CNC(=O)[C@H](Cc2ccccc2)NC(=O)[C@H](CCCNC(=N)N)NC1=O [Example 23, ((4S,7S,13S,16S,19R)-13-benzyl-16-(3-guanidinopropyl)-7-(hydroxymethyl)-6,9,12,15,18-pentaoxo-19-(2-(2-palmitamidoacetamido)acetamido)-1-thia-5,8,11,14,17-pentaazacycloicosane-4-carbonyl)-L-threonyl-ADM(22-52)] (Palmitoyl-GGCRFGT[Abu(4-yl)]TVQKLAHQIYQFTDKDKDNVAPRSKISPQGY-NH2; thioether 3-8)",EC50,[5],15 nM
same,EC50,[6],16.9 nM
